# Laboratory results as given in the supplement of paper PMC7666118.
# Protein sequences, listed by entry. Tags and fused reporters are not part of them. Lines headed by an entry give the natural chain unless they say otherwise; changes in a name come on top.
# UniProt P31949: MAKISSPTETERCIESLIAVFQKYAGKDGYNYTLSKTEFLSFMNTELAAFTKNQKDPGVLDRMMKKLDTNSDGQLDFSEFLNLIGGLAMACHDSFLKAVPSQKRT
# UniProt P22670: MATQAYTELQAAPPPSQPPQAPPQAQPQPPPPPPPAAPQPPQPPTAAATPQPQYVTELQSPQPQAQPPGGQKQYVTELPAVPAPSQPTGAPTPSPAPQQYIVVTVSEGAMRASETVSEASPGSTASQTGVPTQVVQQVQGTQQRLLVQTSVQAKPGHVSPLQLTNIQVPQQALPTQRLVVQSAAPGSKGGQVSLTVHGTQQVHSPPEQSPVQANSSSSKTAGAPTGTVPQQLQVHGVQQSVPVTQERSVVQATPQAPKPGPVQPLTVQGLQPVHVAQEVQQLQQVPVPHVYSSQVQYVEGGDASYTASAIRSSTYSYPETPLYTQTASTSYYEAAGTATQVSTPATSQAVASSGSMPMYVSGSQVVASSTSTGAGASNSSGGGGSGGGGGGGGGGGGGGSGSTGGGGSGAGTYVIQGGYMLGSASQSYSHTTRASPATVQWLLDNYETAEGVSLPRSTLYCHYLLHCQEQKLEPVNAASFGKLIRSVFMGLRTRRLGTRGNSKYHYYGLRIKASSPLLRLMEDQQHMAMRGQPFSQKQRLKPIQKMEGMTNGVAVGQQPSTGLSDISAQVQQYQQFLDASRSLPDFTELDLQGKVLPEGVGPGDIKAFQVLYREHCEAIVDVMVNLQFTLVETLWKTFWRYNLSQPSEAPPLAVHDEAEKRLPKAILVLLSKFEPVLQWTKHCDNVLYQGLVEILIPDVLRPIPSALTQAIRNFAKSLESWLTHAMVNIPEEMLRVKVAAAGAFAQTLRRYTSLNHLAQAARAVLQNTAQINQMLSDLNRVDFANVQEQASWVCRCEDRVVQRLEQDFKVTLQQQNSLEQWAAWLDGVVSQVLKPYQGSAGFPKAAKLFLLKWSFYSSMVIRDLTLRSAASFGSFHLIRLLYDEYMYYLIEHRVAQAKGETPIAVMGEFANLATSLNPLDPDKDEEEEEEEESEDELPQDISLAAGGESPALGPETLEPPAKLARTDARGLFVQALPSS
# UniProt P27694, whole entry: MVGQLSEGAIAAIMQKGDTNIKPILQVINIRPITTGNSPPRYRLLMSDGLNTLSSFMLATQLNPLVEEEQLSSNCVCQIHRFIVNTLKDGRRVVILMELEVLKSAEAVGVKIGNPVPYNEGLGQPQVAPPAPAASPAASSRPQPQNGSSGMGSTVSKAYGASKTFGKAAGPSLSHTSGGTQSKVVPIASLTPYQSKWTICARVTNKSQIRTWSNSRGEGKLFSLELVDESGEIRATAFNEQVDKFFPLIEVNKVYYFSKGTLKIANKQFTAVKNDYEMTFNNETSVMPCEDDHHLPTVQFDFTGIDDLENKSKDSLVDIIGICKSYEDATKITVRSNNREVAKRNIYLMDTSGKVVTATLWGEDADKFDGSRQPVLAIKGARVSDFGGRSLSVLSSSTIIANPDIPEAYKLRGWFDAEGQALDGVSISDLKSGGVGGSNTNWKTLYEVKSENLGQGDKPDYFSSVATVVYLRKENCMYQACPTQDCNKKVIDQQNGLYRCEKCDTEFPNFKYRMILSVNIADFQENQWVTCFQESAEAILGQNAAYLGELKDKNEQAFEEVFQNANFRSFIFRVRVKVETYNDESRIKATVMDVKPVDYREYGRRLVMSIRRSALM
# UniProt Q8N488: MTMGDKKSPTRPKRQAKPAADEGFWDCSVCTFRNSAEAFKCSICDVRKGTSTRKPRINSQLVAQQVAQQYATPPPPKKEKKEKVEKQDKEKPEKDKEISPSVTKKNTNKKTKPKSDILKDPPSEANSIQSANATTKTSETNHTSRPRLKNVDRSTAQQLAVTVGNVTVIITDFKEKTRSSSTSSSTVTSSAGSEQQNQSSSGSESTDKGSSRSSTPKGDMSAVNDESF
# UniProt Q8TC12: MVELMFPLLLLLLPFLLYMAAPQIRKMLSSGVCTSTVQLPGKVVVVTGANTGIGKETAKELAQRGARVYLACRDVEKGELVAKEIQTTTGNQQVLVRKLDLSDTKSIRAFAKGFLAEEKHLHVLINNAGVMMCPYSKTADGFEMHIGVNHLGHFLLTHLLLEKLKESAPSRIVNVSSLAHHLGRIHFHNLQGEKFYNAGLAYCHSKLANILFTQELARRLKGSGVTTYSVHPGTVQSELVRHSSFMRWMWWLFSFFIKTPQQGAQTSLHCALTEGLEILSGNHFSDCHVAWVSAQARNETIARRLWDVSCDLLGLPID
# UniProt Q9UPN7: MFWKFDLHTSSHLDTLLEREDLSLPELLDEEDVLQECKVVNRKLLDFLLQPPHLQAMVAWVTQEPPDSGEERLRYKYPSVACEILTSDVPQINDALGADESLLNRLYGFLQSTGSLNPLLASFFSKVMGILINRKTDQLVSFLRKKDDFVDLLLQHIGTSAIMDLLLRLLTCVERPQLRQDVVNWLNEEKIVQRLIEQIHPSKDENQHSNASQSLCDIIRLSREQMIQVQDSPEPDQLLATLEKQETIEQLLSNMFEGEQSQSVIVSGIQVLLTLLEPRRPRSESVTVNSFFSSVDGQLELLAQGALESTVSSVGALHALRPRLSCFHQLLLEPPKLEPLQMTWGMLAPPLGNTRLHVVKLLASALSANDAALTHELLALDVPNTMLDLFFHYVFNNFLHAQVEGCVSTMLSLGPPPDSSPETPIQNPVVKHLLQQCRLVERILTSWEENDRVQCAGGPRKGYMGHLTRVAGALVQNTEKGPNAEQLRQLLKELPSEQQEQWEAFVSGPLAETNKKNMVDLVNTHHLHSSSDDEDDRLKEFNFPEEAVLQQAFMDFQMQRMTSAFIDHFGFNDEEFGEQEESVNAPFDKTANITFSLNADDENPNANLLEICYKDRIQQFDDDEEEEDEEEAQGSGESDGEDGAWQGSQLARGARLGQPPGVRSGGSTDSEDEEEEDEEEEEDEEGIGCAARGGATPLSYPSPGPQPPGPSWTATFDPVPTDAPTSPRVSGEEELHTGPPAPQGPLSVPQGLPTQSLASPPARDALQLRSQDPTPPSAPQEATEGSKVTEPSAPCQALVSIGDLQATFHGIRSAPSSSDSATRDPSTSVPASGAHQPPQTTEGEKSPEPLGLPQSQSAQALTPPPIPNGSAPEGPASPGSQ
# UniProt P51812, whole entry: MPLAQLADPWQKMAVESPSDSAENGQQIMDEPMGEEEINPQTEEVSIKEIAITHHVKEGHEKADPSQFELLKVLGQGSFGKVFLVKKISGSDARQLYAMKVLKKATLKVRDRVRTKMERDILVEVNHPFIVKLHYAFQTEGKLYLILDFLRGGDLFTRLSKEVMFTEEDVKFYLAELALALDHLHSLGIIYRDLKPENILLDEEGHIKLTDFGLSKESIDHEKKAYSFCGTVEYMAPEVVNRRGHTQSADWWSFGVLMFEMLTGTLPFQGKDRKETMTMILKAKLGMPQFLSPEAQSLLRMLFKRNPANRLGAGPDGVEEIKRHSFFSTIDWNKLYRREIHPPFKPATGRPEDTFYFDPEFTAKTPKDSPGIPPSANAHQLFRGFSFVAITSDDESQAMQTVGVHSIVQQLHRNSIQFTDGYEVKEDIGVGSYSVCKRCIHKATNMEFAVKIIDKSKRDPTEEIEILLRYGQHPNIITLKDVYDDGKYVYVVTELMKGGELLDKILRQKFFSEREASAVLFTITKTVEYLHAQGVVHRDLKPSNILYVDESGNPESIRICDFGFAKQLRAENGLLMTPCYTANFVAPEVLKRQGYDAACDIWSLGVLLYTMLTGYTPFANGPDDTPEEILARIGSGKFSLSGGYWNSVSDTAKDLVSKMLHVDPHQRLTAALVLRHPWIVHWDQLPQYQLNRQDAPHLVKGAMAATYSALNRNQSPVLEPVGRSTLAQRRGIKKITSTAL
# UniProt P49247: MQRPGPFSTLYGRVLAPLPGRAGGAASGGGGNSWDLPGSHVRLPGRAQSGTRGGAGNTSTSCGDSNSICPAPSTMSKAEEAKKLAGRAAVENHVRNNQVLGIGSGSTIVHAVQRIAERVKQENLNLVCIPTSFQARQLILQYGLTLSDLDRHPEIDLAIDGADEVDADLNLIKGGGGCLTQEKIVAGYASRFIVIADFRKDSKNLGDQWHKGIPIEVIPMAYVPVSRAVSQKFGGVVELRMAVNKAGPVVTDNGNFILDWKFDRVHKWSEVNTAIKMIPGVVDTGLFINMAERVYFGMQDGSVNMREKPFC
# UniProt Q8IXW5, whole entry: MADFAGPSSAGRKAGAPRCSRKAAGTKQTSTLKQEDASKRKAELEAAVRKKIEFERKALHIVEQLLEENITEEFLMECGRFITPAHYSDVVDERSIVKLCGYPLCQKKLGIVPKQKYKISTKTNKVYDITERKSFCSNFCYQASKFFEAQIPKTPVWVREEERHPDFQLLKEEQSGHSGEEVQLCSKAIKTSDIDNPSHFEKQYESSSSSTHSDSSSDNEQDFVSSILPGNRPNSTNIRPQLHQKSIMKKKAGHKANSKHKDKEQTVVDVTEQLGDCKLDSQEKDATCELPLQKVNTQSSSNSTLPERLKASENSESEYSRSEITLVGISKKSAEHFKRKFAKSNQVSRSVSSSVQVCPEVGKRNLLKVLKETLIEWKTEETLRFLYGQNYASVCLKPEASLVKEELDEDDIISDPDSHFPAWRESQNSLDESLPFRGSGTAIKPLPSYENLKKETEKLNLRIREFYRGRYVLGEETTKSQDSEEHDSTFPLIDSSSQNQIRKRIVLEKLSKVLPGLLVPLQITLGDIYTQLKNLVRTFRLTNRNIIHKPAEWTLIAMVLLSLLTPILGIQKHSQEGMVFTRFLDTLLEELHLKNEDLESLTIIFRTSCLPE
# UniProt Q9Y256: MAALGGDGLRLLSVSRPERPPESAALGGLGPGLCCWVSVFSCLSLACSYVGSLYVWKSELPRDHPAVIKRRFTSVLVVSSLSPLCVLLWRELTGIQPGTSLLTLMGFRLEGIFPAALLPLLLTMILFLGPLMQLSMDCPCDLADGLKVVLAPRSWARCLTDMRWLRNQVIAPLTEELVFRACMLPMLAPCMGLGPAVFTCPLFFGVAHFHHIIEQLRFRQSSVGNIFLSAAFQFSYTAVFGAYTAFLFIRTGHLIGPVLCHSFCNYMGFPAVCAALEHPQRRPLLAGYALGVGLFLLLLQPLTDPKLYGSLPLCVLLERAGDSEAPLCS
# UniProt Q6PCB5: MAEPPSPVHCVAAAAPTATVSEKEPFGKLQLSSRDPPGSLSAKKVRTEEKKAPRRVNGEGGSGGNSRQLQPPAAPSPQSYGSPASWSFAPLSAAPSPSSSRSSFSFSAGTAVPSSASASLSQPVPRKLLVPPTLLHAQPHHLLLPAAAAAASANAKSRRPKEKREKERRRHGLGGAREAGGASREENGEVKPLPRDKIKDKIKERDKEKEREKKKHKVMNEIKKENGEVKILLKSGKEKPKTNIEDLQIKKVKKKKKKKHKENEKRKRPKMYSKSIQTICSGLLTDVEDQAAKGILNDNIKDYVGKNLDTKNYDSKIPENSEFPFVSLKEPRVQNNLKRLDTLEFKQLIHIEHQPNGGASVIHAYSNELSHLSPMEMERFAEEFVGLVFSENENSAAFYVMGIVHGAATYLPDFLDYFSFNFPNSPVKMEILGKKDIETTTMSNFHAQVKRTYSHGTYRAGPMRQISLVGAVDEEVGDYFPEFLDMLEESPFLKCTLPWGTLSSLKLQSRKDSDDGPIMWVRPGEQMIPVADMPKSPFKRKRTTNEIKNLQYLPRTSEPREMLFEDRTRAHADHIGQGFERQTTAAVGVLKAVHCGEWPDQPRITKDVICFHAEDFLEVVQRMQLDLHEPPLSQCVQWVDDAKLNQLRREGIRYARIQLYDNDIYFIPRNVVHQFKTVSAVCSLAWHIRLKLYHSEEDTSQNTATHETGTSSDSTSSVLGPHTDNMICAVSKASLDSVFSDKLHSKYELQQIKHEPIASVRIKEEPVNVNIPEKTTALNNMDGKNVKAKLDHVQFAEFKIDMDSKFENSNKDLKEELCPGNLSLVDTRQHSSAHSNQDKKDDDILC
# UniProt Q6ZS11: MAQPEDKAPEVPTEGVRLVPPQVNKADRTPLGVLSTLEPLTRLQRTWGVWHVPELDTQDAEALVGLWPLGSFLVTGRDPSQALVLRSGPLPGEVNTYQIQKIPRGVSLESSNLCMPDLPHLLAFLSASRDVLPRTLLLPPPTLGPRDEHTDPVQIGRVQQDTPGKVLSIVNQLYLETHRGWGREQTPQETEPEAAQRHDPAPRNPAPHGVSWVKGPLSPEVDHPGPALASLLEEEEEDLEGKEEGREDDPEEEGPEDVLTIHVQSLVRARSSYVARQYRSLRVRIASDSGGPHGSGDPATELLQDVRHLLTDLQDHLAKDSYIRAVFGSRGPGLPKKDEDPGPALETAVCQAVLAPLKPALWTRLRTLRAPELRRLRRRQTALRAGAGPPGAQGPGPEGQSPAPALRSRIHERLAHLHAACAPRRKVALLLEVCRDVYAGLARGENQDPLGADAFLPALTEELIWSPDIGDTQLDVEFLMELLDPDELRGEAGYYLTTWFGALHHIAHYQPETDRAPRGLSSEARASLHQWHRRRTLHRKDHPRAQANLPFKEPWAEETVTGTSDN
# The list shows a part of the results.
# Compound: COc1ccc(Cn2ccc3ccc(C(=O)NO)cc32)cc1
# Assay: dose-dependent thermal stabilisation call (2D-TPP, DLPTP, 10% FDR) (binary (1 = stabilised)); higher = stabilised by the compound
# Conditions: system: HL-60 intact cells; concentration range 0.04-10 µM
row,Target,dose-dependent thermal stabilisation call
1,RIPK2 (UniProt O43353),inactive: 0
2,RELL1 (UniProt Q8IUW5),inactive: 0
3,RETSAT (UniProt Q6NUM9),inactive: 0
4,RRP1B (UniProt Q14684),inactive: 0
5,ROD1 (UniProt O95758),inactive: 0
6,RPL14 (UniProt P50914),inactive: 0
7,RPL6 (UniProt Q02878),inactive: 0
8,RPA3 (UniProt P35244),inactive: 0
9,RNPS1 (UniProt Q15287),inactive: 0
10,S100A11 (UniProt P31949),inactive: 0
11,RNF113A (UniProt O15541),inactive: 0
12,RFX1 (UniProt P22670),inactive: 0
13,RPA1 (UniProt P27694),inactive: 0
14,RYBP (UniProt Q8N488),inactive: 0
15,RDH11 (UniProt Q8TC12),inactive: 0
16,SAPS1 (UniProt Q9UPN7),inactive: 0
17,RRP9 (UniProt O43818),inactive: 0
18,RPS8 (UniProt P62241),inactive: 0
19,RPS6KA3 (UniProt P51812),active: 1

row,Target,dose-dependent thermal stabilisation call
1,RCC1 (UniProt P18754),inactive: 0
2,RTN4 (UniProt Q9NQC3),inactive: 0
3,RPL12 (UniProt P30050),inactive: 0
4,RPS25 (UniProt P62851),inactive: 0
5,RPL13 (UniProt P26373),inactive: 0
6,RNF167 (UniProt Q9H6Y7),inactive: 0
7,RIOK3 (UniProt O14730),inactive: 0
8,RIF1 (UniProt Q5UIP0),inactive: 0
9,RPS2 (UniProt P15880),inactive: 0
10,ROGDI (UniProt Q9GZN7),inactive: 0
11,RPIA (UniProt P49247),inactive: 0
12,RPL24 (UniProt P83731),inactive: 0
13,RPAP2 (UniProt Q8IXW5),inactive: 0
14,RCE1 (UniProt Q9Y256),inactive: 0
15,RSBN1L (UniProt Q6PCB5),inactive: 0
16,RBPJ (UniProt Q06330),inactive: 0
17,RPE (UniProt Q96AT9),inactive: 0
18,RPL3 (UniProt P39023),inactive: 0
19,RINL (UniProt Q6ZS11),inactive: 0

# Another view of part of the listing above.
row	Target	dose-dependent thermal stabilisation call
5	ROD1 (UniProt O95758)	inactive: 0
12	RFX1 (UniProt P22670)	inactive: 0
